The list shows a part of the results. Shown are side measurements of this screen, not its main read-out; they come without a call. The list favours compounds with an active or inconclusive main result. Potencies come from curve fits of mixed quality, noted in brackets.
Assay: qHTS Assay for Lipid Storage Modulators in Drosophila S3 Cells;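 on cell number change: cells counted by Cell Tracker Red CMTPX staining in the red channel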
Conditions: BODIPY lipid droplet fluorescence, 18-24 h; for cell number change: measured here: cell count max response, cells fed with added oleic acid
Outline: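 Laser-scanning cytometry quantifies lipid droplet accumulation (500–530 nm total intensity; droplet/cell object ratio) in oleic acid-fed (400 uM added) Drosophila S3 cells treated with a concentration series. 20 uM Triacsin C defined 100% inhibition.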

[1] = measured here: lipid fluorescence (Fed channel) AC50, cells fed with added oleic acid
[2] = measured here: cell number channel AC50, cells fed with added oleic acid

| Structure (SMILES) | cell number change | AC50 [1] | AC50 [2] |
| --- | --- | --- | --- |
| O=Cc1c(Cl)cccc1Cl | -16.5% | 1.16 µM [rising, single point] | – |
| COc1ccc(-n2c(SCC#N)nc3ccccc3c2=O)cc1 | 7.29% | 0.82 µM [rising, full curve] | – |
| O=C1NCC(O)=C1C=NCCO | -54.1% | – | 1.64 µM [falling, full curve] |
| O=C(Nc1ccccc1C(=O)O)c1ccc2ccccc2n1 | – | – | 0.82 µM [falling, full curve, poor fit] |
| COc1ccc(S(=O)(=O)N(C)CC(=O)NCc2ccco2)cc1OC | 14.5% | – | – |
| c1ccc(COc2cccc(CNCc3ccccn3)c2)cc1 | -15.4% | – | 0.00461 µM [falling, full curve, poor fit] |
| Cc1ccc(NC(=O)CCC(=O)NNC(=O)c2ccccc2[N+](=O)[O-])c(C)c1 | -29.4% | 2.91 µM [falling, single point] | 0.58 µM [falling, full curve, poor fit] |
| O=C(Nc1ccccc1)C1CC2CCC1C2 (stereo unspecified) | 3.03% | 2.31 µM [rising, single point] | – |
| Cc1[nH]c(C)c(S(=O)(=O)NCc2ccc(F)cc2)c1C(=O)N1CCCCC1 | -17.1% | 0.58 µM [rising, single point] | – |
| O=C(O)c1cccc(NC(=O)c2ccc(N3C(=O)c4ccc(C(=O)Nc5cccc(C(=O)O)c5)cc4C3=O)cc2)c1 | 26.5% | 4.11 µM [falling, single point] | – |
| Cc1cccc(NCC(=O)NNC(=S)Nc2ccccc2)c1 | 8.66% | – | 0.326 µM [falling, single point] |
| Cc1nc(C)c(C(=O)Nc2cccc(F)c2)s1 | 13.5% | – | – |
| O=C(Nc1ccc(F)cc1)C(Sc1nc2ccccc2[nH]1)c1ccccc1 (stereo unspecified) | – | 14.6 µM [rising, partial curve, poor fit] | – |
| COc1ccc(NC(=O)C#Cc2ccccc2)cc1 | – | 1.46 µM [falling, full curve] | – |
| Cc1cc(C)cc(C(=O)Nc2ccc(N3CCCC3)cc2)c1 | 5.65% | 0.112 µM [falling, full curve, poor fit] | – |
| CCN1CCN(C(=O)C2CCCN(c3ncnc4c3nc3n4CCCCC3)C2)CC1 (stereo unspecified) | 42.2% | – | 29.1 µM [rising, single point] |
| CN(c1ccccc1)S(=O)(=O)c1cccc(C(=O)NC2CCCCC2)c1 | -17.6% | 14.6 µM [rising, single point] | – |
| C=CCn1c(NC(=O)c2ccccc2Cl)c(C#N)c2nc3ccccc3nc21 | -21% | 2.31 µM [falling, partial curve, poor fit] | – |
| CCN(CC)S(=O)(=O)c1cc(NC(=O)CSc2nc3c(cc2C#N)C(=O)CC(C)(C)C3)ccc1C | -3.75% | – | – |
| COc1cc(/C=C\C(=O)Nc2cc(=O)n(C)c(=O)n2C)cc(OC)c1OC | -37.9% | 14.6 µM [falling, single point] | – |
| Cc1ccnc(NC(=O)COc2ccc3c(c2)CCC3)c1 | -4.64% | 5.17 µM [falling, single point] | – |

| Structure (SMILES) | cell number change | AC50 [1] | AC50 [2] |
| --- | --- | --- | --- |
| O=C(Nc1ccc2sccc2c1)c1ccc(Cl)s1 | – | 2.06 µM [falling, partial curve] | – |
| CCCCCn1nnc2c(=O)oc3ccccc3c21 | -9.99% | – | – |
| O=C(NCCc1c[nH]c2ccccc12)c1ccc2c(c1)OCO2 | -25% | – | – |
| CCN1CCN(S(=O)(=O)c2ccc(Cl)c(C(=O)Nc3ccccc3N3CCCC3)c2)CC1 | 22.2% | 18.4 µM [rising, single point] | – |
| O=C(C1CCCCC1)N(CCN1CCCC1)c1nc2ccccc2s1 | 18.5% | 2.31 µM [rising, full curve] | 0.651 µM [rising, full curve, poor fit] |
| C/C(=N\NC(=O)c1ccc(NS(=O)(=O)c2cccs2)cc1)c1ccccc1 | 48.3% | 29.1 µM [rising, single point] | 18.4 µM [rising, single point] |
| CC1(C)ON(C2CCCCC2)[C@H]2c3nc4ccccc4n3C[C@H]21 | 4.49% | – | – |
| C=CCN1C(=O)CSc2ccc(C(=O)NCc3ccc(F)cc3)cc21 | -46.9% | – | 29.1 µM [falling, single point] |
| CC(C)n1c(=S)[nH]c2ccccc2c1=O | -32.1% | – | 10.3 µM [falling, partial curve] |
| Cc1nnc2n1NC(c1ccc(Cl)cc1)C(C(=O)N(C)C1CCCCC1)S2 (stereo unspecified) | 13.5% | 6.51 µM [rising, partial curve, poor fit] | – |
| O=[N+]([O-])c1ccc(C(O)CN=Cc2ccc(O)cc2O)cc1 (stereo unspecified) | -65.2% | 8.2 µM [falling, partial curve] | 9.2 µM [falling, partial curve] |
| COc1cc(C(O)c2nc3ccccc3s2)cc(OC)c1OC (stereo unspecified) | -51.5% | 14.6 µM [falling, partial curve, poor fit] | 16.4 µM [falling, partial curve, poor fit] |
| C[C@@H](NC(=O)c1nc[nH]c1C(=O)NC1CCN(C(=O)OC(C)(C)C)CC1)c1ccccc1 | -22.7% | 0.103 µM [rising, full curve, poor fit] | – |
| O=C(CSCc1ccc(Cl)cc1)N/N=C/c1c(Cl)cccc1Cl | -25.7% | 29.1 µM [falling, single point] | – |
| Cc1ccc(S(=O)(=O)NCC2CCC(C(=O)NCc3ccc4c(c3)OCO4)CC2)cc1 (stereo unspecified) | 65.3% | – | 2.91 µM [rising, partial curve] |
| CCCn1c(C)nc2cc(Cl)c(N3CCN(c4nc(-c5ccc(C)cc5)cs4)CC3)cc21 | -2.59% | – | – |
| CCOC(=O)CN(C)C(=O)CCc1nnc(-c2ccc(-c3ccccc3)cc2)o1 | 15.5% | – | – |
| Cc1ccc(C(=S)N2CCCCCC2)cc1 | -17.3% | 0.731 µM [rising, full curve] | – |
| N/C(=N\OC(=O)Cc1ccc(-c2ccccc2)cc1)c1cccc([N+](=O)[O-])c1 | -4.83% | – | – |
| Cc1cc(NC(=O)CSc2nc(-c3cccs3)cc(C(F)(F)F)n2)no1 | – | 1.16 µM [rising, partial curve] | 0.461 µM [rising, single point] |
| CC(NC(=O)c1ccc(Cl)cc1)C(=O)N1CCCCC1 (stereo unspecified) | -4.83% | – | 6.51 µM [falling, single point] |

| Structure (SMILES) | cell number change | AC50 [1] | AC50 [2] |
| --- | --- | --- | --- |
| C[C@@]12C(=O)Nc3cc(F)ccc3C(=O)N1[C@H]1c3ccccc3OC[C@@H]1[C@@H]2c1ccccc1 | 15.4% | 0.517 µM [rising, full curve, poor fit] | – |
| CCOc1ccc(NC(=O)C2CC(=O)NC(N3CCc4ccccc43)=N2)cc1 (stereo unspecified) | 18.7% | – | – |
| O=C(CNC(=O)CNC(=O)c1ccc(Cl)cc1Cl)NCc1cccc(Cl)c1 | 16.2% | – | – |
| O=C(CCCN1C(=O)c2ccccc2C1=O)OC1CSCC1NC(=O)c1ccccc1 (stereo unspecified) | -28.5% | 7.31 µM [falling, partial curve, poor fit] | 0.116 µM [falling, full curve, poor fit] |
| Cc1ccc(S(=O)(=O)NC(=O)NCc2ccccc2)cc1 | -38.3% | 29.1 µM [falling, single point] | 29.1 µM [falling, single point] |
| O=C(O)C1CCC(c2ccc(-c3ccccc3)cc2)CC1 (stereo unspecified) | -1.57% | 29.1 µM [rising, single point] | – |
| Cc1ccc(-c2nc3ccccc3c(=O)n2NC(=O)c2cccs2)cc1 | 4.4% | – | – |
| CC(C)(C=O)Cc1cc(C(C)(C)C)c(O)c(C(C)(C)C)c1 | -34.5% | 29.1 µM [falling, single point] | 29.1 µM [falling, single point] |
| O=C(CSc1n[nH]c(-c2ccccn2)n1)Nc1ccccc1F | -35.5% | – | 11.6 µM [falling, single point] |
| O=C(NCc1cccc(Cl)c1)c1ccc(CS(=O)Cc2ccccc2Cl)o1 (stereo unspecified) | – | 5.17 µM [rising, partial curve] | 0.0326 µM [rising, full curve] |
| Nn1cc(-c2ccccc2)nc1SCC(=O)Nc1ccc(S(N)(=O)=O)cc1 | 26% | 3.26 µM [falling, single point] | – |
| CC(C)C(NS(=O)(=O)c1cccc2nsnc12)C(=O)N1CCCCC1 (stereo unspecified) | -39.9% | 6.51 µM [falling, single point] | 29.1 µM [falling, single point] |
| Cc1cc(C)c2c(N)c(C(=O)Nc3ccccc3Br)sc2n1 | -7.01% | 18.4 µM [falling, partial curve] | – |
| C=CCn1c(SCC(=O)N2CCc3ccccc3C2)nnc1-c1ccncc1 | 27.3% | 3.66 µM [rising, single point] | – |
| CC(=O)Nc1sc(C)c(C)c1C(=O)OCC(=O)NCc1ccc(F)cc1 | 7.52% | 29.1 µM [rising, single point] | – |
| COc1ccc(OCCNC(=O)c2ccc(C)cc2)cc1 | -9.72% | – | – |
| CC(=O)NC12CC3CC(C1)CC(C(=O)OCC(=O)Nc1c(F)cccc1F)(C3)C2 | -21.4% | 0.461 µM [falling, partial curve] | – |
| O=C(Nc1ccc(NC(=S)NC(=O)c2ccco2)cc1)c1ccccc1 | 57.1% | 18.4 µM [falling, single point] | 25.9 µM [rising, partial curve] |
| Cc1cc(C2=CC(C)(c3cc(C)oc3C)Nc3nc(C(F)(F)F)nn32)c(C)o1 (stereo unspecified) | -59.7% | 29.1 µM [falling, single point] | 13 µM [falling, partial curve, poor fit] |

Molecules above with a tert-butyl group, in the order listed:

| Structure (SMILES) | cell number change | AC50 [1] | AC50 [2] |
| --- | --- | --- | --- |
| C[C@@H](NC(=O)c1nc[nH]c1C(=O)NC1CCN(C(=O)OC(C)(C)C)CC1)c1ccccc1 | -22.7% | 0.103 µM [rising, full curve, poor fit] | – |
| CC(C)(C=O)Cc1cc(C(C)(C)C)c(O)c(C(C)(C)C)c1 | -34.5% | 29.1 µM [falling, single point] | 29.1 µM [falling, single point] |

From PubChem BioAssay AID2685 (National Center for Advancing Translational Sciences (NCATS), 2010)
